Consider 31 compounds from the supplement of paper PMC12889115.

The assay concerns Salmonella enterica serovar Typhimurium SL1344. Description: bacterial growth OD600 after 18 h with compound and polymyxin B; higher = more bacterial growth (less inhibition). As to conditions: 50 µM, Mueller-Hinton broth.

The structures appear in SMILES notation. This is one part of the list. Values are raw readings; no control value is given beside them.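 First-pass screen: polymyxin B was added at a level that permeabilizes the Salmonella outer membrane while sparing the inner membrane. DMSO wells, with and without polymyxin B, defined maximum growth. Because plates differed from one another, each plate's data were ranked separately and the compounds with the lowest OD600 were carried forward as hits.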

For `O=C1CCC(C(=O)N2CCCCCCC2)CN1CCc1ccccc1` (stereo unspecified), under “polymyxin B 1 µg/mL”, the “bacterial growth OD600” value turned out to be 0.854.

Turning to `Cn1ccnc1CN1CCCC(CCC(=O)Nc2ccccc2F)C1` (stereo unspecified), the “bacterial growth OD600” value (polymyxin B 1 µg/mL) worked out at 0.938.

As for `CSCc1ccc(C(=O)N2CCC(CCC(=O)NCC3CCCO3)CC2)o1` (stereo unspecified), under “polymyxin B 1 µg/mL”, the “bacterial growth OD600” value came to 0.876.

For `CC(=O)c1ccc(F)c(-c2cc(C)cc3c2OC(CNC(=O)C2=CCCC2)C3)c1` (stereo unspecified), where the note is “polymyxin B 0.75 µg/mL”, the “bacterial growth OD600” value came out at 0.007.

Regarding `COc1cccc(CNC(=O)C2(N3C[C@@H](C)O[C@@H](C)C3)Cc3ccccc3C2)c1`, the “bacterial growth OD600” value (polymyxin B 0.75 µg/mL) turned out to be 0.001.

Take `O=C(Nc1cccc(-c2cscn2)c1)C1CCN(Cc2ccccc2)CC1`: the “bacterial growth OD600” value (polymyxin B 0.75 µg/mL) is 0.657.

As to `Cc1ccc(NC2CCCN(C(=O)c3ccoc3)C2)cc1C` (stereo unspecified), under “polymyxin B 1 µg/mL”, the “bacterial growth OD600” value was found to be 0.842.

On to `CCN1CCN(C2(C(=O)NCCOc3cccnc3)Cc3ccccc3C2)CC1`, for which the “bacterial growth OD600” value (polymyxin B 0.75 µg/mL) came to 0.839.

`CC(C)CCCC1CN(C(=O)CCn2cncn2)CCO1` (stereo unspecified): for the setting “polymyxin B 1 µg/mL”, the “bacterial growth OD600” value was 0.931.

As for `COc1ccc2ccc(OCc3nc(C(=O)N(C)Cc4ccccn4)co3)cc2c1`, the “bacterial growth OD600” value (polymyxin B 1 µg/mL) turned out to be 0.996.

Consider `Cc1nc(C(=O)NCc2c(C)ncc3c2CCN(C(=O)C24CC5CC(CC(C5)C2)C4)C3)cs1`, for which, where the note is “polymyxin B 0.75 µg/mL”, the “bacterial growth OD600” value amounted to 0.972.

As to `OC1CCN([C@@H]2CCN(Cc3ccc(F)c(F)c3)C[C@H]2O)CC1`, the “bacterial growth OD600” value (polymyxin B 1 µg/mL) worked out at 0.94.

For `Fc1cc(F)cc(CN2CCOc3ccc(CN4CCC(Oc5cccnc5)CC4)cc3C2)c1`, the “bacterial growth OD600” value (polymyxin B 0.75 µg/mL) turned out to be 0.104.

Turning to `O=C(Cn1cc2ccccc2n1)NC1CCCc2c1cnn2-c1ccccc1F` (stereo unspecified), the “bacterial growth OD600” value (polymyxin B 0.75 µg/mL) is 0.776.

Consider `CCC(C)C(=O)N1CCC(C2(C)NC(=O)N(Cc3cccc(OC)c3OC)C2=O)CC1` (stereo unspecified), for which the “bacterial growth OD600” value (polymyxin B 0.75 µg/mL) worked out at 0.903.

For the compound `COc1cccc(CC(C2CCN(C(=O)c3ccc(C)nc3)CC2)N(C)C(=O)c2ccsc2)c1` (stereo unspecified), where the note is “polymyxin B 0.75 µg/mL”, the “bacterial growth OD600” value worked out at 0.84.

With `C=CCN(CC=C)c1ccc(-c2nc(-c3cccc(OC)c3OC)no2)cn1`, the “bacterial growth OD600” value (polymyxin B 0.75 µg/mL) is -0.016.

As to `CCOC(=O)N1CCN(Cc2ccc3c(c2)CN(C(=O)CSc2nncn2C)CCO3)CC1`, the “bacterial growth OD600” value (polymyxin B 0.75 µg/mL) is 0.819.

As to `COc1ccc2cc(C(=O)C3CCCN(C(=O)c4snnc4C)C3)ccc2c1` (stereo unspecified), the “bacterial growth OD600” value (polymyxin B 1 µg/mL) amounted to 0.876.

As to `Cn1ccnc1CN1CCCC(CCc2c(F)cccc2F)C1` (stereo unspecified), the “bacterial growth OD600” value (polymyxin B 0.75 µg/mL) turned out to be 0.844.

Take `Cc1ccc(C(=O)NC2CCCN(CCc3ccccc3)C2)cn1` (stereo unspecified): the “bacterial growth OD600” value (polymyxin B 0.75 µg/mL) came to 0.856.

With `O=C(NCCCn1cccn1)C1(N2CCCCC2)Cc2ccccc2C1`, the “bacterial growth OD600” value (polymyxin B 0.75 µg/mL) worked out at 0.875.

With `COc1cccc(CCC(=O)N2CCC(n3nccc3NC(=O)CC(C)C)CC2)c1`, the “bacterial growth OD600” value (polymyxin B 1 µg/mL) is 0.83.

In the case of `O=C(Nc1ccnn1C1CCN(C(=O)CCc2ccc3c(c2)OCO3)CC1)C1CC1`, for the setting “polymyxin B 1 µg/mL”, the “bacterial growth OD600” value was 0.953.

For the compound `COCCN1C(=O)CC(CC(=O)N2CCN(c3ccc(O)cc3)CC2)(c2ccccc2F)C1=O` (stereo unspecified), the “bacterial growth OD600” value (polymyxin B 0.75 µg/mL) was found to be 0.856.

Turning to `COCCN1CC(C(=O)N2CCC3(C=Cc4ccccc43)CC2)CCC1=O` (stereo unspecified), for the setting “polymyxin B 1 µg/mL”, the “bacterial growth OD600” value is 0.817.

As to `NC(=O)C1(C(=O)NC2CC(=O)N(CCc3cccc(Cl)c3)C2)CC1` (stereo unspecified), the “bacterial growth OD600” value (polymyxin B 1 µg/mL) turned out to be 0.966.

Turning to `O=C(NC1CC1)C1CCCN(C2CCN(C(=O)Cc3cccc(F)c3)CC2)C1` (stereo unspecified), the “bacterial growth OD600” value (polymyxin B 0.75 µg/mL) turned out to be 0.833.

Take `CCC(NC(=O)c1cc(COc2ccccc2F)[nH]n1)c1ccncc1` (stereo unspecified): the “bacterial growth OD600” value (polymyxin B 0.75 µg/mL) stood at 0.981.

For `COc1ccc(OC)c2nc(N3CCOCC3)c(CN(CC3COc4ccccc4O3)C(=O)CCn3ccc(C)n3)cc12` (stereo unspecified), the “bacterial growth OD600” value (polymyxin B 0.75 µg/mL) worked out at 0.019.

For `O=C(CCC(F)(F)F)NC1CC(=O)N(Cc2ccccc2C(F)(F)F)C1` (stereo unspecified), the “bacterial growth OD600” value (polymyxin B 1 µg/mL) stood at 0.944.
